Source: article PMC10304383
No constants are given. Whether binding was seen depends on the method and setting. Binding seen in cells or lysates may run through a third protein. These calls come from enrichment with a bait or labelling near it, and not all partners need be listed.

Protein sequences, listed by entry. Tags and fused reporters are not part of them.
UniProt P35221: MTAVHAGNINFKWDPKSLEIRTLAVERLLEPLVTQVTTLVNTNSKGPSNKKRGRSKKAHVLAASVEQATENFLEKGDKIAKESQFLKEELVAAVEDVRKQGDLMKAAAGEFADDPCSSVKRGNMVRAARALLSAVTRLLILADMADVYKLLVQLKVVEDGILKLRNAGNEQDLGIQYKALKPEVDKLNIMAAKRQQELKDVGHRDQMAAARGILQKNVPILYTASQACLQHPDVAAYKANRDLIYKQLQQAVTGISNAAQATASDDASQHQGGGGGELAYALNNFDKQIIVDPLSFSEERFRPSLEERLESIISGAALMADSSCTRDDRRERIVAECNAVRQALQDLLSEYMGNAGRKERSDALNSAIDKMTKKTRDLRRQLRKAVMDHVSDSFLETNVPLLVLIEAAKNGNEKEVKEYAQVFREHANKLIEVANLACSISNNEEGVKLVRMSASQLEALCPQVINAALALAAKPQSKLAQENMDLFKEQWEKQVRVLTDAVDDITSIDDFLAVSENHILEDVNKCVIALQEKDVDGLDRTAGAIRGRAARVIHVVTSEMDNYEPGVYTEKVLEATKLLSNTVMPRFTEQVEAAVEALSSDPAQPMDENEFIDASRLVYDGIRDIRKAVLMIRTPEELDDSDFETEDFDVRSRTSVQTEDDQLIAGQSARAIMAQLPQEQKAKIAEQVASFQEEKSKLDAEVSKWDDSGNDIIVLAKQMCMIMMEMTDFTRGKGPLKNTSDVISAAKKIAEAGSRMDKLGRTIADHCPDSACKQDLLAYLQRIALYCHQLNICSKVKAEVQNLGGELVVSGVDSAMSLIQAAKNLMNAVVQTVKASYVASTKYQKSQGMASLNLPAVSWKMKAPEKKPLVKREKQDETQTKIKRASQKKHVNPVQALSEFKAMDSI
UniProt O14639: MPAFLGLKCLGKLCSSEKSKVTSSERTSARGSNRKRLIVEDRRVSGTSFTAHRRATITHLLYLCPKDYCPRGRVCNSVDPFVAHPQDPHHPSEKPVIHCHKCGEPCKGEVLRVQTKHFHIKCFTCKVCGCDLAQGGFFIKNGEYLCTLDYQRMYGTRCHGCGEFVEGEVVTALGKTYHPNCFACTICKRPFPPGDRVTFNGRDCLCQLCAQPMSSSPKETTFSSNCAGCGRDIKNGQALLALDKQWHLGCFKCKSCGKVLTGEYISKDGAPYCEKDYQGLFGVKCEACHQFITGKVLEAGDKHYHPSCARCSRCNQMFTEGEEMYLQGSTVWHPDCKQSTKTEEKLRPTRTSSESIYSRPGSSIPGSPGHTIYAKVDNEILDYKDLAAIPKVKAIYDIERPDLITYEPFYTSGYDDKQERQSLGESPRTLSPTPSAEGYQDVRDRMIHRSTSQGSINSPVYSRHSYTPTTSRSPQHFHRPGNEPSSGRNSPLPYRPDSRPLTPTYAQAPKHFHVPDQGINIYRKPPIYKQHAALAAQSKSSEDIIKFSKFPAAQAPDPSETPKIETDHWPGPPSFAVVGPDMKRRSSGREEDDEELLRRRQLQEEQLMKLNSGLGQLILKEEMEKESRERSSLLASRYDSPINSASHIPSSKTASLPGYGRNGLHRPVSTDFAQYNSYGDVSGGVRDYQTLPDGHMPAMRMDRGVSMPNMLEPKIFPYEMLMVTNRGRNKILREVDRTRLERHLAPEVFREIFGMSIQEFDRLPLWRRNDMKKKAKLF
UniProt Q9NR12: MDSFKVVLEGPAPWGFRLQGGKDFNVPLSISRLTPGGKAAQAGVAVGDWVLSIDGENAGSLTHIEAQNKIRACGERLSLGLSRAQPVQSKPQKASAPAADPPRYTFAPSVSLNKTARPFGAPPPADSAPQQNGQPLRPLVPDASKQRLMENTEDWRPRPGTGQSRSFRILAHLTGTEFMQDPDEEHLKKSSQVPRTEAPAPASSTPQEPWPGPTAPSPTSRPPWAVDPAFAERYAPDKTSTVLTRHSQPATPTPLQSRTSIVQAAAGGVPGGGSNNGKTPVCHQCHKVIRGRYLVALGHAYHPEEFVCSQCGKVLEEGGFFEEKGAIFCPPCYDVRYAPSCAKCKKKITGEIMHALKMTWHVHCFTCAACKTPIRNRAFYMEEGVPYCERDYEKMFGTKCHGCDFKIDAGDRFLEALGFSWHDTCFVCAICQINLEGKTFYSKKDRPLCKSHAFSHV
UniProt Q14160: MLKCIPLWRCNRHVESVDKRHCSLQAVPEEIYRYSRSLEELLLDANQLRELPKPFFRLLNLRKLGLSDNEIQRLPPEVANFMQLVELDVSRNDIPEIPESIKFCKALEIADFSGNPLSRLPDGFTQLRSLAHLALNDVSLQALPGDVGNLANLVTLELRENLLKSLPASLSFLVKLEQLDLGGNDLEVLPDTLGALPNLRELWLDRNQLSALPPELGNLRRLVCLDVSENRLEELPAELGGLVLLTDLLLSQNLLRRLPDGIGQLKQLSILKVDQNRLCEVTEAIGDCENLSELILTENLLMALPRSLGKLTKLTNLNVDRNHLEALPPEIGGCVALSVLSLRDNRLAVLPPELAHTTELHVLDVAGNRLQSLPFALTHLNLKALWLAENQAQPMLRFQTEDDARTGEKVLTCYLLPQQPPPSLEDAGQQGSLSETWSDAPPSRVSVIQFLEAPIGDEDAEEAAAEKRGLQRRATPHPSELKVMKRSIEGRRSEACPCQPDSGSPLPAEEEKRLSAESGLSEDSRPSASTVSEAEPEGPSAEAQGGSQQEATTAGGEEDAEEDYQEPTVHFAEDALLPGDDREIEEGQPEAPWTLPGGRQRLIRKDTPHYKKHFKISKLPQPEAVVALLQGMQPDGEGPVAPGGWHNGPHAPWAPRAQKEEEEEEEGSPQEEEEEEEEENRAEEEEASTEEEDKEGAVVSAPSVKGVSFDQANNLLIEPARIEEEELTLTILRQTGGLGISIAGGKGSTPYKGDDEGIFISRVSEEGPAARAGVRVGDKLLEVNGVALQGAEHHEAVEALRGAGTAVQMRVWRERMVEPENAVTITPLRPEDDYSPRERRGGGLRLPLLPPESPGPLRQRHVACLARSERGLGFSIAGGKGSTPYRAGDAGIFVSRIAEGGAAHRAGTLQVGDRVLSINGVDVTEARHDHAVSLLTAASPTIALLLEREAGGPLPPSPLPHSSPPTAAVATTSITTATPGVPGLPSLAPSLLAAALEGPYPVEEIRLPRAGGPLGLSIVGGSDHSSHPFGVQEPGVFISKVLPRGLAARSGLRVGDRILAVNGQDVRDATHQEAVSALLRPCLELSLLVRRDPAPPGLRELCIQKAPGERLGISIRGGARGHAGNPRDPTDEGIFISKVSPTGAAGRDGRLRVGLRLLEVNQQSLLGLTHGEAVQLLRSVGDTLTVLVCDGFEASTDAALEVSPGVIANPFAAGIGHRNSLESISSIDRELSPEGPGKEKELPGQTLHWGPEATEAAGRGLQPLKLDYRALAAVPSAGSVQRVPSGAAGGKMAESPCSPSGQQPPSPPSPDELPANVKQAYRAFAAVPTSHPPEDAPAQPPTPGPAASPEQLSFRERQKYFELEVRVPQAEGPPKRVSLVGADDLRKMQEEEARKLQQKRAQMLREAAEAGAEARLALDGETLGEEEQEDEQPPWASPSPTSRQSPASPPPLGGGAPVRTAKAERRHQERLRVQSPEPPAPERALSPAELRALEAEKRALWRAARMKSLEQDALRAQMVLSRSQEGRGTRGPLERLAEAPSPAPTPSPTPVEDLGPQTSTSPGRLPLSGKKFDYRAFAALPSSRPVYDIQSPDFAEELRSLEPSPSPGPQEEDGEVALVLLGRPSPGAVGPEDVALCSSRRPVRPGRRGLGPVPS

Molecular target: α‐catenin tagged with the biotin ligase BirA at the N-terminus (human) (UniProt P35221)
Experiment: proximity labelling; BioID in HLF cells with inducible BirA-α-catenin (1 µg/ml doxycycline 48 h, 50 µM biotin 24 h); biotinylated proteins collected on streptavidin magnetic beads and identified by mass spectrometry; empty BirA vector as control

binding	Molecule
binds	limatin (from UniProt O14639 1-778)
binds	δ-catenin (protein, UniProt O60716 1-968) MDDSEVESTASILASVKEQEAQFEKLTRALEEERRHVSAQLERVRVSPQDANPLMANGTLTRRHQNGRFVGDADLERQKFSDLKLNGPQDHSHLLYSTIPRMQEPGQIVETYTEEDPEGAMSVVSVETSDDGTTRRTETTVKKVVKTVTTRTVQPVAMGPDGLPVDASSVSNNYIQTLGRDFRKNGNGGPGPYVGQAGTATLPRNFHYPPDGYSRHYEDGYPGGSDNYGSLSRVTRIEERYRPSMEGYRAPSRQDVYGPQPQVRVGGSSVDLHRFHPEPYGLEDDQRSMGYDDLDYGMMSDYGTARRTGTPSDPRRRLRSYEDMIGEEVPSDQYYWAPLAQHERGSLASLDSLRKGGPPPPNWRQPELPEVIAMLGFRLDAVKSNAAAYLQHLCYRNDKVKTDVRKLKGIPVLVGLLDHPKKEVHLGACGALKNISFGRDQDNKIAIKNCDGVPALVRLLRKARDMDLTEVITGTLWNLSSHDSIKMEIVDHALHALTDEVIIPHSGWEREPNEDCKPRHIEWESVLTNTAGCLRNVSSERSEARRKLRECDGLVDALIFIVQAEIGQKDSDSKLVENCVCLLRNLSYQVHREIPQAERYQEAAPNVANNTGPHAASCFGAKKGKDEWFSRGKKPIEDPANDTVDFPKRTSPARGYELLFQPEVVRIYISLLKESKTPAILEASAGAIQNLCAGRWTYGRYIRSALRQEKALSAIADLLTNEHERVVKAASGALRNLAVDARNKELIGKHAIPNLVKNLPGGQQNSSWNFSEDTVISILNTINEVIAENLEAAKKLRETQGIEKLVLINKSGNRSEKEVRAAALVLQTIWGYKELRKPLEKEGWKKSDFQVNLNNASRSQSSHSYDDSTLPLIDRNQKSDKKPDREEIQMSNMGSNTKSLDNNYSTPNERGDHNRTLDRSGDLGDMEPLKGTTPLMQDEGQESLEEELDVLVLDDEGGQVSYPSMQKI
binds	plakoglobin (protein, UniProt P14923 1-745) MEVMNLMEQPIKVTEWQQTYTYDSGIHSGANTCVPSVSSKGIMEEDEACGRQYTLKKTTTYTQGVPPSQGDLEYQMSTTARAKRVREAMCPGVSGEDSSLLLATQVEGQATNLQRLAEPSQLLKSAIVHLINYQDDAELATRALPELTKLLNDEDPVVVTKAAMIVNQLSKKEASRRALMGSPQLVAAVVRTMQNTSDLDTARCTTSILHNLSHHREGLLAIFKSGGIPALVRMLSSPVESVLFYAITTLHNLLLYQEGAKMAVRLADGLQKMVPLLNKNNPKFLAITTDCLQLLAYGNQESKLIILANGGPQALVQIMRNYSYEKLLWTTSRVLKVLSVCPSNKPAIVEAGGMQALGKHLTSNSPRLVQNCLWTLRNLSDVATKQEGLESVLKILVNQLSVDDVNVLTCATGTLSNLTCNNSKNKTLVTQNSGVEALIHAILRAGDKDDITEPAVCALRHLTSRHPEAEMAQNSVRLNYGIPAIVKLLNQPNQWPLVKATIGLIRNLALCPANHAPLQEAAVIPRLVQLLVKAHQDAQRHVAAGTQQPYTDGVRMEEIVEGCTGALHILARDPMNRMEIFRLNTIPLFVQLLYSSVENIQRVAAGVLCELAQDKEAADAIDAEGASAPLMELLHSRNEGTATYAAAVLFRISEDKNPDYRKRVSVELTNSLFKHDPAAWEAAQSMIPINEPYGDDMDATYRPMYSSDVPLDPLEMHMDMDGDYPIDTYSDGLRPPYPTADHMLA

The next lines start with the molecule.

Molecule	binding
PDZ and LIM domain 7 (from UniProt Q9NR12 1-457)	binds
Scribble (from UniProt Q14160 1-1655)	binds
centrosomal protein 55 (protein, UniProt Q53EZ4 1-464) MSSRSTKDLIKSKWGSKPSNSKSETTLEKLKGEIAHLKTSVDEITSGKGKLTDKERHRLLEKIRVLEAEKEKNAYQLTEKDKEIQRLRDQLKARYSTTTLLEQLEETTREGERREQVLKALSEEKDVLKQQLSAATSRIAELESKTNTLRLSQTVAPNCFNSSINNIHEMEIQLKDALEKNQQWLVYDQQREVYVKGLLAKIFELEKKTETAAHSLPQQTKKPESEGYLQEEKQKCYNDLLASAKKDLEVERQTITQLSFELSEFRRKYEETQKEVHNLNQLLYSQRRADVQHLEDDRHKTEKIQKLREENDIARGKLEEEKKRSEELLSQVQFLYTSLLKQQEEQTRVALLEQQMQACTLDFENEKLDRQHVQHQLHVILKELRKARNQITQLESLKQLHEFAITEPLVTFQGETENREKVAASPKSPTAALNESLVECPKCNIQYPATEHRDLLVHVEYCSK	binds
calmin (protein, UniProt Q96JQ2 1-1002) MAAHEWDWFQREELIGQISDIRVQNLQVERENVQKRTFTRWINLHLEKCNPPLEVKDLFVDIQDGKILMALLEVLSGRNLLHEYKSSSHRIFRLNNIAKALKFLEDSNVKLVSIDAAEIADGNPSLVLGLIWNIILFFQIKELTGNLSRNSPSSSLSPGSGGTDSDSSFPPTPTAERSVAISVKDQRKAIKALLAWVQRKTRKYGVAVQDFAGSWRSGLAFLAVIKAIDPSLVDMKQALENSTRENLEKAFSIAQDALHIPRLLEPEDIMVDTPDEQSIMTYVAQFLERFPELEAEDIFDSDKEVPIESTFVRIKETPSEQESKVFVLTENGERTYTVNHETSHPPPSKVFVCDKPESMKEFRLDGVSSHALSDSSTEFMHQIIDQVLQGGPGKTSDISEPSPESSILSSRKENGRSNSLPIKKTVHFEADTYKDPFCSKNLSLCFEGSPRVAKESLRQDGHVLAVEVAEEKEQKQESSKIPESSSDKVAGDIFLVEGTNNNSQSSSCNGALESTARHDEESHSLSPPGENTVMADSFQIKVNLMTVEALEEGDYFEAIPLKASKFNSDLIDFASTSQAFNKVPSPHETKPDEDAEAFENHAEKLGKRSIKSAHKKKDSPEPQVKMDKHEPHQDSGEEAEGCPSAPEETPVDKKPEVHEKAKRKSTRPHYEEEGEDDDLQGVGEELSSSPPSSCVSLETLGSHSEEGLDFKPSPPLSKVSVIPHDLFYFPHYEVPLAAVLEAYVEDPEDLKNEEMDLEEPEGYMPDLDSREEEADGSQSSSSSSVPGESLPSASDQVLYLSRGGVGTTPASEPAPLAPHEDHQQRETKENDPMDSHQSQESPNLENIANPLEENVTKESISSKKKEKRKHVDHVESSLFVAPGSVQSSDDLEEDSSDYSIPSRTSHSDSSIYLRRHTHRSSESDHFSYVQLRNAADLDDRRNRILTRKANSSGEAMSLGSHSPQSDSLTQLVQQPDMMYFILFLWLLVYCLLLFPQLDVSRL	binds
